Results are given in words; binding and its absence hold for the method and conditions named. Binding seen in cells or lysates may run through a third protein. Some results given as binding are weak or reduced against the parent protein; the word gives no strength. Where a sequence is shown, tags or fusion partners need not be part of it.
Biological target: T1, IkB kinase ε with Flag tag (IKKε-Flag) (UniProt Q14164)
T1 sequence: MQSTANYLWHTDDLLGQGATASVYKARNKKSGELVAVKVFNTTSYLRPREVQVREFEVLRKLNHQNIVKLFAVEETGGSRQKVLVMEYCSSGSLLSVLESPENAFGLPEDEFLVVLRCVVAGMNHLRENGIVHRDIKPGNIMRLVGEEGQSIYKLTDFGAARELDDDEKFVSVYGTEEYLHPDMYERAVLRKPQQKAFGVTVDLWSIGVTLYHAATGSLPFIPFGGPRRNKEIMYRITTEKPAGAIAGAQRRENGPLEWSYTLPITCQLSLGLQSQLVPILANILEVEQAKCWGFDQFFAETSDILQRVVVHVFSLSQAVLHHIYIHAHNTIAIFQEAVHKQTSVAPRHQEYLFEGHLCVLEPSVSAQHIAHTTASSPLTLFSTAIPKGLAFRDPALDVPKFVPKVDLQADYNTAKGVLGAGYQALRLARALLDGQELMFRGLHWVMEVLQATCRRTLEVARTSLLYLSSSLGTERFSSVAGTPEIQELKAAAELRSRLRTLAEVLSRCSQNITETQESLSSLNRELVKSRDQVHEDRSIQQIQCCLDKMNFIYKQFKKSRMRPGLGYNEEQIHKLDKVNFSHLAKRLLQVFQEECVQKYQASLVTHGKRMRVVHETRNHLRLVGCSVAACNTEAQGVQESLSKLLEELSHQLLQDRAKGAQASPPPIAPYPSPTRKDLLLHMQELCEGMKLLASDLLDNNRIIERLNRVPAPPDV
Experiment: co-IP

Amino acid sequences for entries named in this document (tags omitted).
UniProt Q9C030: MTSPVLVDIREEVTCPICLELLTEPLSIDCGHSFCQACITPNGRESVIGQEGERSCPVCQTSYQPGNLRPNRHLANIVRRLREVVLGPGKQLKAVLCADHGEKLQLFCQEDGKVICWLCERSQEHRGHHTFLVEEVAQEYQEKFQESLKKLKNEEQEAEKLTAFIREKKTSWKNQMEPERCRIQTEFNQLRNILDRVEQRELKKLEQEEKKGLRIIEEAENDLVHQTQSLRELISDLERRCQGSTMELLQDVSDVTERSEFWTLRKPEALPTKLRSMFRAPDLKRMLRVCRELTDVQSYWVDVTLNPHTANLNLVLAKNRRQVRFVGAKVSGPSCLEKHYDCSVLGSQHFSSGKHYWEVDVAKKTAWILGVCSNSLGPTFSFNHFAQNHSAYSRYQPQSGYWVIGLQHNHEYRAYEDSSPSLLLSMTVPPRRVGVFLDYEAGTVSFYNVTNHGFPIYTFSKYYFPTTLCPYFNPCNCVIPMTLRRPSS

## tripartite motif-containing 6 (TRIM6) (from UniProt Q9C030 1-488) (enzyme)
  binding: binds

Reference: PMC8319745
